For one substance, binding results are on record in article PMC2994903.

The chains behind the UniProt entries cited, without tags or fusion partners. Where a name states a change or a piece, a line headed by the entry shows the natural chain unless it says otherwise.
UniProt P09496: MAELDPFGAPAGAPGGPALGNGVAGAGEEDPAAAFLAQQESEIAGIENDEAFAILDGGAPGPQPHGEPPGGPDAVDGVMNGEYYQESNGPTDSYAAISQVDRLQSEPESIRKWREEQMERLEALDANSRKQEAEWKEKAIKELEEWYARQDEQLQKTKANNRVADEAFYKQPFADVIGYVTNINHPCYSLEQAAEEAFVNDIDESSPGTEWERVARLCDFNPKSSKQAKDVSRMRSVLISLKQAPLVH
UniProt Q9UI95: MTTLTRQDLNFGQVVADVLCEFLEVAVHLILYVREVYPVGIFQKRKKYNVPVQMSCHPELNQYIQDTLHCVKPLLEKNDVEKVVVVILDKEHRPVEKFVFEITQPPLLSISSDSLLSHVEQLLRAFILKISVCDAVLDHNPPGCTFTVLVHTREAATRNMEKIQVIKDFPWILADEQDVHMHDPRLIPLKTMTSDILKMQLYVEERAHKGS

In experiment [1] the target is endogenous clathrin light chain A (CLTA) (human (endogenous in U2OS)) (UniProt P09496). Kind of experiment: co-IP; endogenous proteins, unsynchronized U2OS cells (majority in G0 and/or G1); IP with anti-CLTA, blot with anti-MAD2B.
For experiment [2] the target is unchanged. Kind of experiment: condition: only cells at t = 0 of the double thymidine block (S phase); co-IP; endogenous proteins, U2OS cells at t = 0 of the double thymidine block (majority in S phase); IP with anti-CLTA, blot with anti-MAD2B.
For experiment [3] the target is unchanged. Kind of experiment: co-IP; endogenous proteins, U2OS cells 12 h after release from a double thymidine block (majority in G2 and/or M); IP with anti-CLTA or control mouse IgG, blot with anti-MAD2B.

No constants are given. Whether binding was seen depends on the method and setting. In cells and extracts the contact can be indirect. For part of these data: A result given as binding can be weak or reduced; the word gives no strength.

As for “endogenous MAD2B (from UniProt Q9UI95 1-211)”, the binding result in experiment [1] is on record as “no binding (only unsynchronized cells)”; in experiment [2], “no binding”; in experiment [3] it was “binds”.
